In the supplement of paper PMC6411743:
± gives the standard deviation of the averaged measurements. The list shows a part of the results.

Sequences of proteins named here, by UniProt entry; tags and fusion partners are left off. A change or cut given only in a name is not applied to a line headed by its entry.
UniProt Q96AC1: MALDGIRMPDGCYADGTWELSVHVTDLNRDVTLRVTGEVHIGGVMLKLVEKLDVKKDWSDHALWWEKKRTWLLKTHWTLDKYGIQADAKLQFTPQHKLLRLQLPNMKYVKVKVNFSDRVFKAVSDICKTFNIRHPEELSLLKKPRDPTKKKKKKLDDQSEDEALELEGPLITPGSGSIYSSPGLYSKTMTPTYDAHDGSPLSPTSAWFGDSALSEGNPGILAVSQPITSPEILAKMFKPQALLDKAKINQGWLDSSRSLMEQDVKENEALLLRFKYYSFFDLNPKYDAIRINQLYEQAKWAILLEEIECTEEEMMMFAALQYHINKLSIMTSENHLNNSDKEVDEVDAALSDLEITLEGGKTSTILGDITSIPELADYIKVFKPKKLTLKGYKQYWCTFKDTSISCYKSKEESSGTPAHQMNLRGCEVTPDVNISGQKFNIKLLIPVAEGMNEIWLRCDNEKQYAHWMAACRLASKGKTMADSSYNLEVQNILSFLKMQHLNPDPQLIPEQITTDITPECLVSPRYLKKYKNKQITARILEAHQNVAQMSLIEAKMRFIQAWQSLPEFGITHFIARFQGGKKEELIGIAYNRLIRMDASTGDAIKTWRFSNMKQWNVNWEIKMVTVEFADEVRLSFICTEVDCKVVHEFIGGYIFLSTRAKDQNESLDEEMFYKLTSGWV
UniProt Q9BVL2: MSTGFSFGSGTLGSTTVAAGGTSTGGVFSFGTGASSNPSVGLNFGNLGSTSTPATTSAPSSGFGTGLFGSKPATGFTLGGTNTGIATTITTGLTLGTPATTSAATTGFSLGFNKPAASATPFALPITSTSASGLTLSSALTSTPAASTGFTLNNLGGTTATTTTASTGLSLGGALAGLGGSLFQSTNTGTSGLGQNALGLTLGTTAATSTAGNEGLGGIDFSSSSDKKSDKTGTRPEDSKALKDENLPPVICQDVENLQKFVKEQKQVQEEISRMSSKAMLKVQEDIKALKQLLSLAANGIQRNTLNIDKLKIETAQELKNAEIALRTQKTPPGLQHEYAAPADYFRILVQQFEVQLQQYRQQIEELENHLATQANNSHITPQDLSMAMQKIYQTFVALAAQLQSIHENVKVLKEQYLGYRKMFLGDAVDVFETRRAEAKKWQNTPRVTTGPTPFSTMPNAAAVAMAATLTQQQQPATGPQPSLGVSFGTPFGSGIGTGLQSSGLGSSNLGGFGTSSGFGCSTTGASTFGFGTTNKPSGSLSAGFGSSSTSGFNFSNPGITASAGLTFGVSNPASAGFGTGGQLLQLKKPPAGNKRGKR
UniProt Q9NRY6: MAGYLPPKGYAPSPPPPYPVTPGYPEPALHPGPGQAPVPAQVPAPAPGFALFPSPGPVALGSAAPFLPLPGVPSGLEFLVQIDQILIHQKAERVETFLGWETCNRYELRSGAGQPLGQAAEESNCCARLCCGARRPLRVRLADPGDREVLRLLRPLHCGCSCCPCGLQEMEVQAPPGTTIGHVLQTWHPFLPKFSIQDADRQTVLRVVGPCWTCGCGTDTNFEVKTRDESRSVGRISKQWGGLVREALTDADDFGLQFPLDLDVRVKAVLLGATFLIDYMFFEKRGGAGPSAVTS
UniProt Q9BXS5: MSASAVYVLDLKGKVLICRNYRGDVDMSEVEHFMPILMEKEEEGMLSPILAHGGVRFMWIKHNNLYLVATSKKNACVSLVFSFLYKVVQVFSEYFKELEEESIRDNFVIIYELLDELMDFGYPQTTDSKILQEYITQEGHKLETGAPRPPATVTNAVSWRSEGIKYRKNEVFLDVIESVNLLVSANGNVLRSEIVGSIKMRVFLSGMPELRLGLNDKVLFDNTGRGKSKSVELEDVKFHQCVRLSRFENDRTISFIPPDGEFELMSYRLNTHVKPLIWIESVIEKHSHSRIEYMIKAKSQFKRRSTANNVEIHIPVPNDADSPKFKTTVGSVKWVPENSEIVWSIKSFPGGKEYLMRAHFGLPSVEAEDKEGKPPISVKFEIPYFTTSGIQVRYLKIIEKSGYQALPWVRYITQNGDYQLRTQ
UniProt O60291: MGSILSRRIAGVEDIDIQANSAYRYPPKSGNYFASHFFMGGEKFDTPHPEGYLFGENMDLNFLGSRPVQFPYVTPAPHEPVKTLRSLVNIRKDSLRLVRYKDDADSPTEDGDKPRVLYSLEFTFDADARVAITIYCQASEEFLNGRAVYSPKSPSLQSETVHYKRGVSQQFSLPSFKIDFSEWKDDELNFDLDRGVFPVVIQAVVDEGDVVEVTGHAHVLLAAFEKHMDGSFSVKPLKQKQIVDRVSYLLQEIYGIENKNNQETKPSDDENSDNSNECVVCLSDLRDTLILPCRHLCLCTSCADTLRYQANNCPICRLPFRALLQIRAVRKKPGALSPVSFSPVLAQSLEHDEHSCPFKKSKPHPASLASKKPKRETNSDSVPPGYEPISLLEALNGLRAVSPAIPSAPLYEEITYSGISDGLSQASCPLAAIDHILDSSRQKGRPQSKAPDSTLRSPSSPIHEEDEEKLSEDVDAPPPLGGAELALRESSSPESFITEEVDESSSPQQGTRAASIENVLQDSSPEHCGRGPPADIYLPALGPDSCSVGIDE
UniProt P67812: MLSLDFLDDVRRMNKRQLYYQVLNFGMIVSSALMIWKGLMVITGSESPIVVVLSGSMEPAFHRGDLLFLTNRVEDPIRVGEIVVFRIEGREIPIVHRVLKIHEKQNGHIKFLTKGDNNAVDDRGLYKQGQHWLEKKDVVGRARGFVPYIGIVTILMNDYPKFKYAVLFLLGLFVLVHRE
UniProt Q15022: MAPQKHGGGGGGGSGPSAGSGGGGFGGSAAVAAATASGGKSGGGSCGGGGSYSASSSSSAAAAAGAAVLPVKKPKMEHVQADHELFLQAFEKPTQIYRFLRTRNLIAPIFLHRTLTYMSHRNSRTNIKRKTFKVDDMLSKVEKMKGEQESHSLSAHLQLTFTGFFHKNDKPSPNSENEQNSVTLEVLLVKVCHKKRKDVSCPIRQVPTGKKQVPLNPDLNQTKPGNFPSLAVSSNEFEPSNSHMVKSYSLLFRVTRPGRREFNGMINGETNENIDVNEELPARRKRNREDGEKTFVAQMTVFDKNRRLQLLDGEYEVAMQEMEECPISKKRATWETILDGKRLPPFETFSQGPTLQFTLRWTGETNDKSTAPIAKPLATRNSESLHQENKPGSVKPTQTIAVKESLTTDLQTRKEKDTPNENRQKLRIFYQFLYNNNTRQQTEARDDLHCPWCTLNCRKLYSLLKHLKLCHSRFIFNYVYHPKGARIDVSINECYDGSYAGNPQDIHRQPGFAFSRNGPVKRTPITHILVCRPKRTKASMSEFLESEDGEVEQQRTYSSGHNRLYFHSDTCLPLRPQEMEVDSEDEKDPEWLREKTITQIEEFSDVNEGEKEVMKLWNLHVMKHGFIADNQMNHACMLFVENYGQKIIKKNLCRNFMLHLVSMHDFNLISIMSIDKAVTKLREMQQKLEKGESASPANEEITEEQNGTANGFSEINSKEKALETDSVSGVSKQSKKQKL
UniProt Q13569: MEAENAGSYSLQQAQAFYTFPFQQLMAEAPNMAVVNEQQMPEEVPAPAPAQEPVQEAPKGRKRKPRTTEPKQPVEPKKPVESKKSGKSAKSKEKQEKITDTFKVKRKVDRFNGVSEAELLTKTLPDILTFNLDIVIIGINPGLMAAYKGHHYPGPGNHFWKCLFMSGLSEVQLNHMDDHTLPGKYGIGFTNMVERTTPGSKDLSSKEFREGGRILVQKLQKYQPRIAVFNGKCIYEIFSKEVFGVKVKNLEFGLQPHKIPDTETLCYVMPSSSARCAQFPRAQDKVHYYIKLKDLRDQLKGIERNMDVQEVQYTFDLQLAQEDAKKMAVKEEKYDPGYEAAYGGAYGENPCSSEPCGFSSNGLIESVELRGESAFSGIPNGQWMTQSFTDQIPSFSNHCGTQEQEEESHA
UniProt Q9BZG8: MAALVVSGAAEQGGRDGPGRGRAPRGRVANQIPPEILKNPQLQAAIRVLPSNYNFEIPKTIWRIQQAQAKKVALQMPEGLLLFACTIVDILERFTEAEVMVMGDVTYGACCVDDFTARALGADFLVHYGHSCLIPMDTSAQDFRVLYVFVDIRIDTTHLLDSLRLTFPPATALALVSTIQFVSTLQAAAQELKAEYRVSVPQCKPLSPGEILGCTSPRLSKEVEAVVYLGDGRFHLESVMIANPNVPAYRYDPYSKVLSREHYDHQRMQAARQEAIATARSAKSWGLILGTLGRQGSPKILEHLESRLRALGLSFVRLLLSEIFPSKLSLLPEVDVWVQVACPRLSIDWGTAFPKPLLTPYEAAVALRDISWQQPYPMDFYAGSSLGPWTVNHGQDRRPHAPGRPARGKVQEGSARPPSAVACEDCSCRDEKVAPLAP
UniProt O14562: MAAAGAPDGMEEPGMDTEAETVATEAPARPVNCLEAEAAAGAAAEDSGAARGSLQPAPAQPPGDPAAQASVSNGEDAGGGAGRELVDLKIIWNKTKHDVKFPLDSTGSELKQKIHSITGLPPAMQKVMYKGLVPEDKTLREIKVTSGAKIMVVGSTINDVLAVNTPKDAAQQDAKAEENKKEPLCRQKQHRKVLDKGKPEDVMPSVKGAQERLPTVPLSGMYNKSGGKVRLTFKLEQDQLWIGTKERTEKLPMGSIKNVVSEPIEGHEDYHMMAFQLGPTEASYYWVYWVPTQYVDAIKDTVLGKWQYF
UniProt Q8N1S5: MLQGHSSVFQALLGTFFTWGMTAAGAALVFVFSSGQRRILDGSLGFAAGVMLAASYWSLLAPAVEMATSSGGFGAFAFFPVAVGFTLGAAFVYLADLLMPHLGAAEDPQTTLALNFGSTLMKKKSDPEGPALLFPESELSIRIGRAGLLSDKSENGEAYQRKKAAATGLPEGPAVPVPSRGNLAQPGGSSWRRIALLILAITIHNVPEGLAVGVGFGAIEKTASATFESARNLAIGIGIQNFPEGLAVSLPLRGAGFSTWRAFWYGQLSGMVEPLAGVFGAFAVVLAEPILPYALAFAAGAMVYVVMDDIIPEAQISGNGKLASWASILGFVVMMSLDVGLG
UniProt Q3YEC7: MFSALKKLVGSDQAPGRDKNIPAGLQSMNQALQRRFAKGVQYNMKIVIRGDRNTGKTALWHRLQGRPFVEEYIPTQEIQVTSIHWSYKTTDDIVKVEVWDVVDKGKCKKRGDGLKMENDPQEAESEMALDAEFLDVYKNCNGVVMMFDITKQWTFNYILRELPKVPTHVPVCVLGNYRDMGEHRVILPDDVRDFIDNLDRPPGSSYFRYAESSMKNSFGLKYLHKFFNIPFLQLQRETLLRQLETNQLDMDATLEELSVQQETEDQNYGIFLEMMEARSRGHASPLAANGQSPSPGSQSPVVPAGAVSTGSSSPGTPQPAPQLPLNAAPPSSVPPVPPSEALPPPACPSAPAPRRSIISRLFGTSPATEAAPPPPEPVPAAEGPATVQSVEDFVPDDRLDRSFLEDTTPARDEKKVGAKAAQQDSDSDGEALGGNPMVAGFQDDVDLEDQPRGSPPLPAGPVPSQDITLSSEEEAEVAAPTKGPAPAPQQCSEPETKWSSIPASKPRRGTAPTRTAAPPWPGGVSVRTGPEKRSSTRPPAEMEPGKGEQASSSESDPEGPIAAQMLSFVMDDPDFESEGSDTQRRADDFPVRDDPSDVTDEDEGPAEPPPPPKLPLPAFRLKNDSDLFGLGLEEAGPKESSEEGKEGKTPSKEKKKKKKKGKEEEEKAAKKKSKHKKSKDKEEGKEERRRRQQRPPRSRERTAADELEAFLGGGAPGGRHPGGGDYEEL
UniProt O43414: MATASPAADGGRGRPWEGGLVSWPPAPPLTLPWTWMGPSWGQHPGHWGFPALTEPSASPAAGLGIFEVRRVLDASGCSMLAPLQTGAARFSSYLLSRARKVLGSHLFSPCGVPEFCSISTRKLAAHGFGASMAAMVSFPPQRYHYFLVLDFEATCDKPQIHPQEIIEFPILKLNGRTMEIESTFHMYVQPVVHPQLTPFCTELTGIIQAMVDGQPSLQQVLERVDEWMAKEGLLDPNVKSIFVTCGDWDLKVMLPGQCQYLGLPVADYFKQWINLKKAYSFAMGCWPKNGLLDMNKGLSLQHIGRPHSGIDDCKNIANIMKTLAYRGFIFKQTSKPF
UniProt P20674, whole entry: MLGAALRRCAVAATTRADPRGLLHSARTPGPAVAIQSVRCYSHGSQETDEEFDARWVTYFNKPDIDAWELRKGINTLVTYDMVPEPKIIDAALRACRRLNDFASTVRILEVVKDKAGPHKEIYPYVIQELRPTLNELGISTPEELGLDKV
UniProt Q12982: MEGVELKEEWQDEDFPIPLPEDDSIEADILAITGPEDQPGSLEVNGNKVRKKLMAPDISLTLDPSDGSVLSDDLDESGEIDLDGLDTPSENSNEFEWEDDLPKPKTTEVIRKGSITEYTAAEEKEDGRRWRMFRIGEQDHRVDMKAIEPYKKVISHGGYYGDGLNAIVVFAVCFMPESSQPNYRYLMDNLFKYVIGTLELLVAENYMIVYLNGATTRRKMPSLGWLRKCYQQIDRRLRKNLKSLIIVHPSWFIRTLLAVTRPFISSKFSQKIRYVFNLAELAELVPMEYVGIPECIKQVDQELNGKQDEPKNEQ

Compound: Nc1nc2c(ncn2[C@@H]2O[C@H](COP(=O)(O)OP(=O)(O)OP(=O)(O)O)[C@@H](O)[C@H]2O)c(=O)[nH]1 [guanosine triphosphate]
Assay: NP40-soluble protein abundance relative to vehicle (solubility fold change) (ratio); higher = more soluble protein in presence of GTP
Outline: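 Values are fold changes against the detergent-processed vehicle, based on vsn-normalised intensities. Jurkat crude lysate was treated at eight concentrations from 0.1 to 10 mM (10 min at room temperature, then 3 min at 37 °C), solubilised with 0.8% NP40 and benzonase, ultracentrifuged and analysed by TMT-labelled LC-MS/MS over three independent experiments.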

| Target | NP40-soluble protein abundance (concentration: 0.1mM) | NP40-soluble protein abundance (concentration: 0.5mM) | NP40-soluble protein abundance (concentration: 1mM) | NP40-soluble protein abundance (concentration: 2mM) | NP40-soluble protein abundance (concentration: 4mM) | NP40-soluble protein abundance (concentration: 6mM) | NP40-soluble protein abundance (concentration: 8mM) | NP40-soluble protein abundance (concentration: 10mM) |
| --- | --- | --- | --- | --- | --- | --- | --- | --- |
| H3BSH7 and related entries (UniProt Q969X6) | 1.03 ± 0.14 | 1.09 ± 0.11 | 1.03 ± 0.095 | 1.12 ± 0.22 | 1.28 ± 0.24 | 1.33 ± 0.22 | 1.32 ± 0.18 | 1.44 ± 0.31 |
| H0YJ34 and related entries (UniProt Q96AC1) | 1.05 ± 0.081 | 0.992 ± 0.056 | 0.925 ± 0.023 | 0.954 ± 0.093 | 0.932 ± 0.061 | 0.929 ± 0.09 | 0.905 ± 0.045 | 0.887 ± 0.095 |
| H7BYF2 and related entries (UniProt Q9BVL2) | 0.886 ± 0.013 | 0.843 ± 0.069 | 0.97 ± 0.046 | 0.948 ± 0.12 | 0.992 ± 0.12 | 1.03 ± 0.12 | 1.06 ± 0.14 | 1.19 ± 0.085 |
| I3L3X5 and related entries (UniProt Q9NRY6+I3L3X5) | 1.19 ± 0.13 | 1.28 ± 0.2 | 1.3 ± 0.44 | 1.3 ± 0.26 | 1.48 ± 0.43 | 1.31 ± 0.29 | 1.08 ± 0.17 | 0.952 ± 0.24 |
| H7C1U8 and related entries (UniProt Q9BUR5) | 0.98 ± 0.038 | 0.931 ± 0.1 | 0.969 ± 0.012 | 0.974 ± 0.039 | 0.945 ± 0.053 | 0.956 ± 0.024 | 0.911 ± 0.073 | 0.95 ± 0.043 |
| H3BUX2 and related entries (UniProt O43169) | 0.844 ± 0.024 | 0.822 ± 0.067 | 0.902 ± 0.039 | 0.852 ± 0.087 | 0.863 ± 0.11 | 0.889 ± 0.12 | 0.836 ± 0.096 | 0.857 ± 0.057 |
| K7EJL1 and related entries (UniProt Q9BXS5) | 1.01 ± 0.056 | 1.05 ± 0.1 | 0.947 ± 0.034 | 0.963 ± 0.084 | 0.938 ± 0.062 | 0.943 ± 0.073 | 0.886 ± 0.032 | 0.882 ± 0.061 |
| H0YKD8 and related entries (UniProt P46779) | 0.989 ± 0.1 | 1.06 ± 0.17 | 1.07 ± 0.23 | 0.993 ± 0.27 | 0.881 ± 0.33 | 0.854 ± 0.28 | 0.527 ± 0.13 | 0.901 ± 0.33 |
| H0Y9X1 and related entries (UniProt Q96EY4) | 1.03 ± 0.069 | 0.968 ± 0.061 | 1.02 ± 0.061 | 1.01 ± 0.12 | 1.18 ± 0.15 | 1.22 ± 0.082 | 1.43 ± 0.099 | 1.48 ± 0.12 |
| K7EPJ5 and related entries (UniProt O60291) | 1.2 ± 0.14 | 1.12 ± 0.11 | 1.12 ± 0.22 | 1.12 ± 0.039 | 1.05 ± 0.095 | 1.11 ± 0.044 | 1.13 ± 0.026 | 0.885 ± 0.23 |
| H0YNP1 and related entries (UniProt O94923) | 0.9085 ± 0.0029 | 0.92 ± 0.096 | 0.897 ± 0.022 | 0.851 ± 0.082 | 0.827 ± 0.19 | 0.892 ± 0.13 | 0.841 ± 0.066 | 0.815 ± 0.12 |
| H0YKT4 and related entries (UniProt P67812) | 1.01 ± 0.036 | 1.04 ± 0.046 | 0.909 ± 0.038 | 0.923 ± 0.04 | 0.91 ± 0.033 | 0.924 ± 0.028 | 0.899 ± 0.018 | 0.861 ± 0.059 |
| J3QQW9 and related entries (UniProt Q15022) | 1.04 ± 0.046 | 1.02 ± 0.011 | 1.07 ± 0.063 | 1.09 ± 0.04 | 1.2 ± 0.11 | 1.15 ± 0.087 | 1.29 ± 0.2 | 1.28 ± 0.12 |
| H0YH87 and related entries (UniProt Q99700) | 1 ± 0.047 | 0.972 ± 0.041 | 1.08 ± 0.046 | 1.08 ± 0.034 | 1.11 ± 0.023 | 1.12 ± 0.02 | 1.11 ± 0.043 | 1.2 ± 0.071 |
| I3L2J8 and related entries (UniProt Q9UPN4) | 1.2 ± 0.033 | 1.01 ± 0.09 | 1.23 ± 0.036 | 1.31 ± 0.02 | 1.36 ± 0.14 | 1.405 ± 0.0016 | 1.327 ± 0.0018 | 1.47 ± 0.23 |
| G8JL98 and related entries (UniProt Q13569) | 0.925 ± 0.055 | 1.06 ± 0.047 | 0.975 ± 0.17 | 0.956 ± 0.14 | 0.87 ± 0.16 | 0.878 ± 0.077 | 0.96 ± 0.16 | 0.99 ± 0.11 |
| I3L1H5 and related entries (UniProt Q9BZG8) | 0.986 ± 0.14 | 0.954 ± 0.076 | 0.947 ± 0.058 | 0.955 ± 0.089 | 0.908 ± 0.065 | 0.877 ± 0.14 | 0.933 ± 0.051 | 0.902 ± 0.056 |
| H3BRL3 and related entries (UniProt O14562) | 0.9509 ± 0.0069 | 0.971 ± 0.079 | 1.02 ± 0.057 | 0.964 ± 0.08 | 0.945 ± 0.067 | 0.956 ± 0.1 | 0.959 ± 0.065 | 0.999 ± 0.085 |
| J3KRX2 and related entries (UniProt Q8N1S5) | 1 ± 0.1 | 1 ± 0.075 | 1.06 ± 0.087 | 0.997 ± 0.061 | 1.07 ± 0.043 | 0.991 ± 0.096 | 1.07 ± 0.048 | 1.01 ± 0.056 |
| H7BXY3 and related entries (UniProt Q7L2E3) | 0.909 ± 0.068 | 0.793 ± 0.053 | 0.83 ± 0.048 | 0.877 ± 0.037 | 0.948 ± 0.059 | 1.02 ± 0.075 | 1.011 ± 0.008 | 1.12 ± 0.048 |
| H0Y4Z8 and related entries (UniProt Q3YEC7) | 1.01 ± 0.02 | 1.02 ± 0.045 | 1.01 ± 0.045 | 0.978 ± 0.034 | 0.984 ± 0.046 | 0.956 ± 0.053 | 0.9851 ± 0.0074 | 0.971 ± 0.037 |
| K7EIK7 and related entries (UniProt O95834) | 0.977 ± 0.053 | 1.01 ± 0.059 | 0.885 ± 0.044 | 0.9 ± 0.021 | 0.878 ± 0.028 | 0.914 ± 0.021 | 0.833 ± 0.031 | 0.855 ± 0.045 |
| J3KR58 and related entries (UniProt Q99611) | 1.01 ± 0.14 | 0.995 ± 0.11 | 1.01 ± 0.15 | 0.973 ± 0.14 | 0.957 ± 0.22 | 0.968 ± 0.2 | 0.917 ± 0.076 | 0.934 ± 0.077 |
| H0Y4B0 and related entries (UniProt O43414) | 1.05 ± 0.043 | 1.01 ± 0.067 | 0.945 ± 0.067 | 0.942 ± 0.066 | 0.86 ± 0.076 | 0.943 ± 0.11 | 0.9 ± 0.1 | 0.829 ± 0.13 |
| H3BNX8 and related entries (UniProt P20674) | 1 ± 0.12 | 0.85 ± 0.084 | 1.16 ± 0.16 | 1.06 ± 0.1 | 1.14 ± 0.089 | 1.05 ± 0.09 | 1.14 ± 0.16 | 1.11 ± 0.21 |
| J3KN59 and related entries (UniProt Q12982) | 0.933 ± 0.058 | 0.952 ± 0.077 | 0.948 ± 0.097 | 0.858 ± 0.14 | 0.798 ± 0.12 | 0.824 ± 0.11 | 0.839 ± 0.038 | 0.776 ± 0.047 |

Copied from the entries so far for reference:

| Target | NP40-soluble protein abundance (concentration: 0.1mM) | NP40-soluble protein abundance (concentration: 0.5mM) | NP40-soluble protein abundance (concentration: 1mM) | NP40-soluble protein abundance (concentration: 2mM) | NP40-soluble protein abundance (concentration: 4mM) | NP40-soluble protein abundance (concentration: 6mM) | NP40-soluble protein abundance (concentration: 8mM) | NP40-soluble protein abundance (concentration: 10mM) |
| --- | --- | --- | --- | --- | --- | --- | --- | --- |
| H0Y4Z8 and related entries (UniProt Q3YEC7) | 1.01 ± 0.02 | 1.02 ± 0.045 | 1.01 ± 0.045 | 0.978 ± 0.034 | 0.984 ± 0.046 | 0.956 ± 0.053 | 0.9851 ± 0.0074 | 0.971 ± 0.037 |
| K7EIK7 and related entries (UniProt O95834) | 0.977 ± 0.053 | 1.01 ± 0.059 | 0.885 ± 0.044 | 0.9 ± 0.021 | 0.878 ± 0.028 | 0.914 ± 0.021 | 0.833 ± 0.031 | 0.855 ± 0.045 |
